PubChem BioAssay AID651640 (Broad Institute, 2012)
The whole screen tested about 350,000 compounds, of which about 6,000 (1.7%) were called active. The inconclusive results got no clear call from the source; some entries with a clear call stand among them for comparison. Rule as the data show it: active = CPE inhibition above about 20% (passing the limit was not always enough); inconclusive = no clear call, values can overlap the other calls; tested in BHK-21 cells. Some structures have more than one record in an assay (separate samples or runs), and their calls can disagree.

Test: protection of cells from dengue 2 killing – plate reader, single concentration, primary screen (AID 651640);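 also: 0% = median of neutral control wells and 100% = median of positive control wells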
Conditions: DENV2-infected cells, cytopathic effect rescue, at 9.99 µM, stronger effect = higher value

Row | Compound | CPE inhibition
1 | COC(=O)CNC(=O)C1CCCN1C(=O)CNC(=O)OCc1ccccc1 (stereo not drawn) | inactive: 1.38%
2 | CCCOC1OC(=O)c2c1ccc(OC)c2OC (stereo not drawn) | inconclusive: 41%
3 | CCCNC(=O)Nc1ccc2c(c1)OC[C@@H](C)N(C(=O)C1CCCCC1)C[C@@H](C)[C@@H](OC)CN(C)C2=O | inconclusive: 28.1%
4 | COCCn1cc(C(=O)c2cc(Br)ccc2O)cc(C#N)c1=O | inconclusive: 32%
5 | Cc1cc(=O)n2nc(N3CCC(C(=O)NCc4cccc(Cl)c4)CC3)sc2n1 | inconclusive: 20.4%
6 | CCC(=O)N1CCCCN2[C@H](C1)[C@@H](c1ccc(C#Cc3cccnc3)cc1)[C@@H]2CO | active: 23.7%
7 | CC(C)Oc1cccc(C(=O)N/N=C/c2coc3ccccc3c2=O)c1 | inconclusive: 27.4%
8 | O=C(c1cc(C2CC2)on1)N1CCCC(N2CCN(c3cccc(C(F)(F)F)c3)CC2)C1 (stereo not drawn) | active: 30.2%
9 | CN(C)C(=O)c1cccc(-c2ccc([C@@H]3[C@H]4CN(C(=O)Cc5ccccc5)CC(=O)N4[C@H]3CO)cc2)c1 | inactive: -0.55%
10 | CNC[C@@H](CC1CCCCC1)NC[C@H](CC(C)C)NCCc1cccc(C(F)(F)F)c1 | inconclusive: 70.2%
11 | C[C@H]1CCCCO[C@@H](CN(C)C(=O)Nc2ccc(F)cc2)[C@@H](C)CN([C@@H](C)CO)C(=O)c2cc(NC(=O)Nc3ccc(C(F)(F)F)cc3)ccc2O1 | inconclusive: 32.9%
12 | COc1ccccc1/C=C/C(=O)NC(=S)NCC1CCCO1 (stereo not drawn) | inactive: -2.9%
13 | C[C@@H](NC(=O)c1nc[nH]c1C(=O)N[C@H](C)c1ccccc1)c1ccccc1 | inconclusive: 40.2%
14 | N#Cc1ccc(-c2ccc([C@@H]3[C@@H](CO)N4C(=O)CN(C(=O)C5CC5)C[C@H]34)cc2)cc1 | inactive: -6.58%
15 | O=CNc1cc(-c2ccsc2)cn2c(-c3ccccc3)cnc12 | inconclusive: 28.6%
16 | C[C@H]1CN([C@@H](C)CO)C(=O)c2cccc(NS(=O)(=O)c3ccc(F)cc3)c2O[C@H]1CN(C)S(=O)(=O)c1cccs1 | inactive: 1.35%
17 | COc1ccc(S(=O)(=O)Nc2ccc3c(c2)C(=O)N([C@@H](C)CO)C[C@H](C)[C@@H](CN(C)S(=O)(=O)c2cccs2)OCCCC[C@@H](C)O3)cc1 | inactive: -3.46%
18 | CCOC(=O)CC1(C)Sc2ccccc2N1S(=O)(=O)c1ccc(C)cc1 (stereo not drawn) | active: 63.2%
19 | CCCC(=O)Nc1ccc2c(c1)C(=O)N(C)[C@@H]1CC[C@@H](CC(=O)NCCCN(C)C)O[C@@H]1CO2 | inconclusive: 91.5%
20 | C[C@H]1CN([C@@H](C)CO)C(=O)c2cc(C#CCC3CCCC3)cnc2O[C@@H]1CN(C)C(=O)c1cnccn1 | inactive: -8.92%
21 | CCOc1ccccc1NC(=O)c1ccc2ccccc2c1 | inconclusive: 32.9%
22 | O=S(=O)(NCC[C@H]1CC[C@@H](NS(=O)(=O)c2cccc(F)c2)[C@@H](CO)O1)c1cccc(F)c1 | inactive: 11.5%
23 | O=C(Nc1nc(=O)[nH]s1)c1ccccc1 | inconclusive: 24.4%
24 | COCC(=O)Nc1ccc2c(c1)[C@@H]1C[C@H](CC(=O)OC)O[C@H](CO)[C@@H]1O2 | active: 27.8%

Copied from above for reference:
Row | Compound | CPE inhibition
1 | COC(=O)CNC(=O)C1CCCN1C(=O)CNC(=O)OCc1ccccc1 (stereo not drawn) | inactive: 1.38%
2 | CCCOC1OC(=O)c2c1ccc(OC)c2OC (stereo not drawn) | inconclusive: 41%
3 | CCCNC(=O)Nc1ccc2c(c1)OC[C@@H](C)N(C(=O)C1CCCCC1)C[C@@H](C)[C@@H](OC)CN(C)C2=O | inconclusive: 28.1%

More entries

Row | Compound | CPE inhibition
25 | O=C(CN1CCOCC1)N[C@@H]1CC[C@H](CCNC(=O)Nc2cc(F)ccc2F)O[C@H]1CO | inactive: -10.5%
26 | Cc1cc(C)cc(OCC(=O)OCC(=O)Nc2cc(C)nn2-c2ccccc2)c1 | inconclusive: 44.2%
27 | COc1ccccc1-c1ccccc1[C@@H]1[C@@H](C#N)N(C(=O)C2CCC2)[C@@H]1CO | active: 43.8%
28 | CC(C)(C)CN1C(=O)C(=O)NC[C@@H]1CCCCN | active: 136%
29 | O=C(COC(=O)C1CCN(S(=O)(=O)c2ccc3c(c2)OCCO3)CC1)NC1CCCCC1 | inconclusive: 37.2%
30 | CC1CCCN(c2nc(NCc3ccco3)nc(N)c2[N+](=O)[O-])C1 (stereo not drawn) | inactive: 3.39%
31 | O=C1N=c2ccccc2=C1c1c(O)n(-c2cccc(F)c2)[nH]c1=O | inconclusive: 88.2%
32 | C/C=C/c1ccc([C@H]2[C@@H](CN(C)C(=O)C3CC3)N(C(=O)C3CC3)[C@H]2CO)cc1 | inactive: -3.24%
33 | COc1ccc(CN(C)C(=O)C(Cc2ccccc2)NC(=O)c2ccccc2)c(OC)c1 (stereo not drawn) | inconclusive: 24.8%
34 | O=C(c1ccc(F)cc1)N1CC(=O)N2[C@H](CO)[C@H](c3ccc(-c4ccccc4)cc3)[C@H]2C1 | active: 24.4%
35 | CC1CCCN(C(C(=O)Nc2ccc3c(c2)OCO3)c2ccccc2)C1 (stereo not drawn) | inactive: -2.12%
36 | COc1ccc(S(=O)(=O)N(C)C[C@H]2Oc3ccc(NS(=O)(=O)c4ccccc4)cc3C(=O)N([C@@H](C)CO)C[C@@H]2C)cc1 | inconclusive: 47.1%
37 | CCCCCCSc1cccc(-c2nc3ccc(C)cn3c2NCc2ccccc2)c1 | inconclusive: 32.2%
38 | COc1ccc(-c2cc3nc(NCCOc4ccccc4)ccn3n2)cc1 | inconclusive: 72.3%
39 | COc1cc(NC(=O)COc2ccccc2)ccc1NC(=O)c1ccco1 | inconclusive: 28.2%
40 | CCN(CC)CCn1c(=N)n(CC(=O)c2ccc(C)cc2)c2ccccc21 | inconclusive: 20.5%
41 | C[C@@H]1CN([C@@H](C)CO)C(=O)c2cc(-c3ccc(F)cc3)cnc2O[C@@H]1CN(C)CC1CCOCC1 | inconclusive: 0.257%
42 | COc1ccccc1N1CCN(C(=O)c2ccco2)CC1 | inconclusive: 34.4%
43 | COc1ccc(C2=NOC(COc3ccc([N+](=O)[O-])cc3)C2)cc1 (stereo not drawn) | inconclusive: 36.8%
44 | CS(=O)(=O)c1ccccc1-c1nnc(NC(=O)c2ccc(S(=O)(=O)N3CCCC3)cc2)o1 | inactive: 0.724%
45 | COc1cc(/C=C/C(=O)OCC(=O)NCCCc2ccccc2)ccc1O | inconclusive: 44.2%
46 | CC(CC(=O)Nc1ccc(F)cc1F)S(=O)(=O)c1ccc2c(c1)NC(=O)CO2 (stereo not drawn) | inconclusive: 46.4%
47 | NC(=S)N/N=C/c1cn(CCC(=O)O)nc1-c1cccc(Br)c1 | inconclusive: 31.5%
48 | CC1(C)C(=O)Nc2ccccc2N1C(=O)Cn1ncc(Cl)c(Cl)c1=O | inconclusive: 25%
